Test results reported in patent publication US8361967B2 (Tianjin Medical University, priority 2008, dated 2013).
No end group written: not given here.

Experiment: peptide made by a vendor (Fmoc solid-phase peptide synthesis; Fmoc-Asp(OtBu)-Wang Resin)
Conditions: whole synthesis

HKQLVFFEED
final HPLC purity: >95%
